For at least one compound, name, drawing or mass did not settle the structure.
Target: T1, hGR(I747/T) (Homo sapiens, UniProt P04150, I747T)
T1 construct: The same shift was observed as with the complete GR (I747/T) mutant; expressed in transfected cells
T1 sequence (P04150 1-777 I747T): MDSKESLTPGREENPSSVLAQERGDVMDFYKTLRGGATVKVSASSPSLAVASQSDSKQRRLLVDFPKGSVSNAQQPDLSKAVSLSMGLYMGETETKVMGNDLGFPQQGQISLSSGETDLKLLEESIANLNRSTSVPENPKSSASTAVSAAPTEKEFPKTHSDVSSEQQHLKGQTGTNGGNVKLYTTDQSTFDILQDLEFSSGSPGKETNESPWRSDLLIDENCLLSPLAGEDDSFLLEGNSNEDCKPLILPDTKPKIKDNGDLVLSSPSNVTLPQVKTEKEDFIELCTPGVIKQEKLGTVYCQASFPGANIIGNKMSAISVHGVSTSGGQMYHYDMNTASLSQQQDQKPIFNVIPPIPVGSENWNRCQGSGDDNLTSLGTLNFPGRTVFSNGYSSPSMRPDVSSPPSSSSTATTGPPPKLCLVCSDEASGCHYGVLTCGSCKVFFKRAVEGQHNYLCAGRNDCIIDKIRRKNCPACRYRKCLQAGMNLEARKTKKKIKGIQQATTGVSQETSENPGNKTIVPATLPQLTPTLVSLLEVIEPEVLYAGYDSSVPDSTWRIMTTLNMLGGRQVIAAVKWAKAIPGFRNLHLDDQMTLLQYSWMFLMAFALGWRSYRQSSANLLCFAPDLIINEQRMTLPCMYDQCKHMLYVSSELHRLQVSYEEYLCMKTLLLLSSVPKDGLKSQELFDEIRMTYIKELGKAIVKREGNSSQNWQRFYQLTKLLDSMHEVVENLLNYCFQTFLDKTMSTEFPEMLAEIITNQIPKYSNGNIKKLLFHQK
Experiment: Transcriptional activation of pTAT-tk-Luc luciferase reporter in transiently transfected CV-1 cells
Assay type: cell-based
Description: The receptors were transiently expressed in GR-free CV-1 cells, conjointly with a luciferase reporter gene under the control of the tyrosine aminotransferase promoter (pTAT-tk-Luc).
After transfection, the cells were incubated for 24 hours with increasing concentrations of Dex, and they were then subjected to an assay of the β-galactosidase and luciferase activities, as described in “Materials and Methods”. The luciferase activity was normalized with the β-galactosidase activity, and the value obtained in the absence of ligand was subtracted for each point. The results were expressed as a percentage of the maximum luciferase activity obtained for each receptor. […] The [^3H] steroid attached was measured after treatment with dextran-coated charcoal. […]
The CV-1 and Cos-7 cells were cultured in Dulbeco's modified Eagle's medium (DMEM) containing 10% (v/v) of fetal calf serum (FCS) (Gibco, Grand Island, N.Y.), in a humidified atmosphere containing 5% CO2. […] The corresponding luciferase activity as determined on an aliquot fraction (0.1 ml), by evaluation of the luminescence peak (for an integration time of 15 seconds), after injection of 0.1 ml of 1 mM luciferin in an LKB luminometer. The β-galactosidase was determined by the method modified by Bocquel et al. (49), for controlling the efficiency of each transfection. […]

## CC1(C)O[C@@H]2C[C@H]3[C@@H]4CCC5=CC(=O)C=C[C@]5(C)[C@@]4(F)[C@@H](O)C[C@]3(C)[C@]2(C(=O)CO)O1 [TA, triamcinolone acetonide]
CV-1 cells, pTAT-tk-Luc
  transactivation by the I747/T mutant receptor compared with wild-type receptor: the same transactivation as with the wild-type receptor
EC50 hGR(I747/T) relative to EC50 wild type
  % EC50: 40%
